Test results: PMC11984844
These are yes or no findings as the source states them, for the method shown. Binding seen in cells or lysates may run through a third protein. Some entries that bind do so weakly or less than the wild type. For part of these data: Tags and fused reporters may be left off the sequences shown.

By UniProt entry, the sequences of proteins in these tests, tags left out.
UniProt Q9Y297: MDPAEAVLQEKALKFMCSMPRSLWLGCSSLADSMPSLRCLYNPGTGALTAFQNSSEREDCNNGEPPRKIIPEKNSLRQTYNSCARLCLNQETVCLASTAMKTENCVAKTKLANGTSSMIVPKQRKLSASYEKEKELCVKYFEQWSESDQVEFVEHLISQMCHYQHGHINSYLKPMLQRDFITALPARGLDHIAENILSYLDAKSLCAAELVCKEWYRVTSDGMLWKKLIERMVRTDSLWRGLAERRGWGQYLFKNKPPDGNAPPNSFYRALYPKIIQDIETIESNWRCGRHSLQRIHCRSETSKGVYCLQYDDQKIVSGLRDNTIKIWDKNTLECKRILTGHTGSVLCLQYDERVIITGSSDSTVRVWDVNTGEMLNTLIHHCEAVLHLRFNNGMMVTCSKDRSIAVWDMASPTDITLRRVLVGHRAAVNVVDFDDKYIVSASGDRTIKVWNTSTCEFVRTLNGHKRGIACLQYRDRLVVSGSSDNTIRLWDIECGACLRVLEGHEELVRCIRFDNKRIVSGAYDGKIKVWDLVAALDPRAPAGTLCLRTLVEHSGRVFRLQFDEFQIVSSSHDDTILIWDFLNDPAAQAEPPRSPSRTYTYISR

Key:
[1] = target: T1, Flag-eEF2K (eukaryotic elongation factor 2 kinase) (human) (UniProt O00418); assay: co-IP; HEK293T cells transfected with Flag-eEF2K and HA-βTRCP, treated with different concentrations of C4, or with 0.4 µM C4 or 0.4 µM C1; immunoprecipitation with anti-Flag antibody, western blot with anti-HA
T1 sequence: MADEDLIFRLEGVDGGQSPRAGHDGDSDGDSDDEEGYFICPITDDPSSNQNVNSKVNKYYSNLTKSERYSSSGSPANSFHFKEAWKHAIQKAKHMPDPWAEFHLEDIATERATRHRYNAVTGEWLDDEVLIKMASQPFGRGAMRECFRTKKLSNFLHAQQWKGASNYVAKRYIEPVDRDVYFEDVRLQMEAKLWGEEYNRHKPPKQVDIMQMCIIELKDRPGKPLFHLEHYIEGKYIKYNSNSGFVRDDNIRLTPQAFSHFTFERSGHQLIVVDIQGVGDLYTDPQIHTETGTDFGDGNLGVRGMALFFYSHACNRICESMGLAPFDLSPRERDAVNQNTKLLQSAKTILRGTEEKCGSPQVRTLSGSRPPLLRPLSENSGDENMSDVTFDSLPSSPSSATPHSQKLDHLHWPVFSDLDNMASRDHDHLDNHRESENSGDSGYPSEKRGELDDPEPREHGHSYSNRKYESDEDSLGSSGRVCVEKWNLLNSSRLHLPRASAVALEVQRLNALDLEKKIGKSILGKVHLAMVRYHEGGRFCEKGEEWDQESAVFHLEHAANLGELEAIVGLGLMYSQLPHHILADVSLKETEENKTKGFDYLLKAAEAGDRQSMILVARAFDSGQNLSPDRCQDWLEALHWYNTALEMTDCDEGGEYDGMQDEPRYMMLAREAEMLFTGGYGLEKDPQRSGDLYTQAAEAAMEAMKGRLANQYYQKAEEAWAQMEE

[2] = target: T1, Flag-eEF2K (eukaryotic elongation factor 2 kinase) (human); assay: co-IP; HEK293T cells co-transfected with Flag- and HA-tagged plasmids; immunoprecipitation with anti-Flag or anti-HA antibodies; RIPA lysis buffer (medium), protein A/G magnetic beads overnight at 4 °C; western blot
[3] = target: T2, GST-eEF2K, purified recombinant (human) (UniProt O00418); assay: pull-down; lysate of HEK293T cells transfected with HA-AURKA for 48 h (legend: anti-HA immune complexes) incubated with purified GST or GST-eEF2K at 4 °C for 4 h; glutathione beads; HA detected by western blot; only the target purified
T2 sequence: T1 sequence

[4] = target: T3, eEF2K, endogenous in MDA-MB-231 cells (human (endogenous in MDA-MB-231)) (UniProt O00418); assay: co-IP; endogenous proteins of MDA-MB-231 cells immunoprecipitated with anti-AURKA or anti-eEF2K antibody; western blot
T3 sequence: T1 sequence

[5] = target: T2, GST-eEF2K, purified recombinant (human); assay: pull-down; purified GST-eEF2K with HEK293T cell lysates expressing the full-length or different functional domains of HA-AURKA (the legend calls it immunoprecipitation); HA detected by western blot; only the target purified

HA-βTRCP (beta-transducin repeats-containing protein) (from UniProt Q9Y297 1-605)
binding [1]: binds

B1: HA-AURKA (aurora kinase A), full length, wild type (enzyme, UniProt O14965 1-403)
chain: MDRSKENCISGPVKATAPVGGPKRVLVTQQFPCQNPLPVNSGQAQRVLCPSNSSQRIPLQAQKLVSSHKPVQNQKQKQLQATSVPHPVSRPLNNTQKSKQPLPSAPENNPEEELASKQKNEESKKRQWALEDFEIGRPLGKGKFGNVYLAREKQSKFILALKVLFKAQLEKAGVEHQLRREVEIQSHLRHPNILRLYGYFHDATRVYLILEYAPLGTVYRELQKLSKFDEQRTATYITELANALSYCHSKRVIHRDIKPENLLLGSAGELKIADFGWSVHAPSSRRTTLCGTLDYLPPEMIEGRMHDEKVDLWSLGVLCYEFLVGKPPFEANTYQETYKRISRVEFTFPDFVTEGARDLISRLLKHNPSQRPMLREVLEHPWITANSSKPSNCQNKESASKQS
binding [2]: binds
binding [3]: binds

B2: AURKA, endogenous in MDA-MB-231 cells (enzyme, UniProt O14965 1-403)
chain: B1 chain
binding [4]: binds

TANSSKPSNCQNKESASKQS (domain or fragment, UniProt O14965 384-403) [HA-AURKA terminal regulatory domain (aa 384–403)]
binding [5]: binds

B3: HA-AURKA central catalytic domain (aa 127–384) (domain or fragment, UniProt O14965 127-384)
chain: QWALEDFEIGRPLGKGKFGNVYLAREKQSKFILALKVLFKAQLEKAGVEHQLRREVEIQSHLRHPNILRLYGYFHDATRVYLILEYAPLGTVYRELQKLSKFDEQRTATYITELANALSYCHSKRVIHRDIKPENLLLGSAGELKIADFGWSVHAPSSRRTTLCGTLDYLPPEMIEGRMHDEKVDLWSLGVLCYEFLVGKPPFEANTYQETYKRISRVEFTFPDFVTEGARDLISRLLKHNPSQRPMLREVLEHPWIT
binding [5]: binds
